Test results taken from patent US11654178B2, “Cyclic prosaposin peptides and uses thereof” (CHILDREN'S MEDICAL CENTER CORPORATION, priority 2014, dated 2023).
Not every detail of the peptide structures is certain; ends, links or a residue may be inferred. Where a SMILES comes first, the peptide text is derived from it. [ ]: non-standard residue; d: D form.

System: DF14 cells
Experiment: PDX model of established ovarian cancer metastases, d-amino acid Psap peptide
Assay type: in vivo
Excerpt: 75 percent of ovarian cancer patients already have disseminated disease at the time of first diagnosis (E. Lengyel, Ovarian cancer development and metastasis. Am J Pathol 177, 1053-1064 (2010)). For these patients inhibiting metastasis would have limited therapeutic benefit. Rather, these patients require a therapeutic agent that can regress or, at the very least, stabilize existing metastases. Whether the d-amino acid Psap peptide could have therapeutic efficacy in a model of established metastatic dissemination was investigated. 1×10^6 DF14 cells, expressing firefly luciferase, were injected into the peritoneal cavity of SCID mice to mimic the route of dissemination of human ovarian cancer. The growth of metastatic colonies in the mice in real time were monitored via relative luciferase intensity and when the average intensity of the luciferase signal was 0.5-1×10^8 RLU, treatment with vehicle (saline), the d-amino acid peptide (40 mg/kg QD), or cisplatin (4 mg/kg QOD) was started. […] However, during those 20 days half of the cisplatin treated mice died from adverse side effects of the drug as defined by total body weight, which decreased by 40% (FIG. 13C). Moreover, after 20 days the tumors in the group of cisplatin treated mice that survived began to grow, despite continued treatment with cisplatin, and all the remaining mice died within 10 days (FIG. 13A). […]

In the case of CC(C)C[C@@H](NC(=O)[C@H](Cc1c[nH]c2ccccc12)NC(=O)[C@H](N)CC(=O)O)C(=O)N1CCC[C@H]1C(=O)O [linear dWIP] (H-[dD]W[dL]P-OH; N-terminus and C-terminus assumed), the “Cd11b+/Gr1+ cells in the peritoneal fluid by FACS” value (control treated mice 71-77%) is reported as 31.4% and the “tumor volume as determined by luciferase intensity” value (first 20 days of treatment, peptide 40 mg/kg QD, cisplatin 4 mg/kg QOD) is reported as “able to regress tumor volume”.
